Measured values from PubChem BioAssay AID330 (DTP/NCI, 2004).
The list does not hold the whole screen: it gathers tests that were run many times, whatever their T/C, doses with no T/C, and many T/C values between a quarter and a half above the control. Further doses and runs are listed elsewhere. T/C is the treated group as % of the vehicle group. Some entries give survivors of the animals treated and no T/C: the source holds a T/C of zero for them, seemingly a mark for toxic or unscored doses. Some survivor counts are full or nearly so, which does not show that the dose was tolerated: the source hardly ever lists a survival T/C far under the control, and the zero likely stands for such cases as well. Survivors were counted at the toxicity check, usually on the fifth day, unless a day is given; later deaths do not show. Schedule codes are those of the source, read here as Q, the interval in days (D) or hours (H), X, the number of doses. Some entries were tested several times; the results are listed from low to high. Counts like (3×) give the number of equal values in this list. For survival time, this PubChem deposit counts one and a half times the control or more as active, and values a quarter to a half above the control carry no call in these data; other NCI protocols may use other cut-offs. Some T/C values are followed by the survivors on the day toxicity was checked, most often the fifth; without a count, all were alive then.

System: P388 leukemia ip, CD2F1 mice, survival T/C
Assay: NCI In Vivo Anticancer Drug Screen. Data for tumor model P388 Leukemia (intraperitoneal) in CD2F1 (CDF1) mice
Settings: T/C endpoint: median survival time, higher T/C = longer survival

CC[C@]1(O)C[C@H]2CN(CCc3c([nH]c4ccccc34)[C@@](C(=O)OC)(c3cc4c(cc3OC)N(C=O)[C@H]3[C@@](O)(C(=O)OC)[C@H](OC(C)=O)[C@]5(CC)C=CCN6CC[C@]43[C@@H]65)C2)C1
T/C (dose: 1.0 mg/kg/injection, schedule: Q04DX003 (ip), vehicle: saline, evaluated on day 40): 197 % of control | T/C (dose: 1.0 mg/kg/injection, schedule: Q04DX003 (ip), vehicle: saline, evaluated on day 45): 170, 183, 186, 196 (2×), 197, 202, 206, 210, 213 (2×), 214, 220 (2×), 221, 231, 242, 253 % of control | T/C (dose: 1.0 mg/kg/injection, schedule: Q04DX003 (ip), vehicle: saline, evaluated on day 56): 186 % of control | T/C (dose: 1.0 mg/kg/injection, schedule: Q04DX003 (ip), vehicle: saline, evaluated on day 60): 157, 175, 191, 193, 205, 207, 212, 213 (2×), 216, 217, 218, 219, 221, 225, 227, 229, 231 (2×), 232, 234, 236, 245 % of control | T/C (dose: 1.2 mg/kg/injection, schedule: Q04DX003 (ip), vehicle: saline, evaluated on day 6): 144 % of control | T/C (dose: 1.2 mg/kg/injection, schedule: Q04DX003 (ip), vehicle: saline, evaluated on day 30): 198 [9 of 10 alive] and 204 % of control | T/C (dose: 1.2 mg/kg/injection, schedule: Q04DX003 (ip), vehicle: saline, evaluated on day 45): 97, 192, 199, 216 % of control | T/C (dose: 1.3 mg/kg/injection, schedule: Q01DX001 (ip), vehicle: saline): 136 % of control | T/C (dose: 1.3 mg/kg/injection, schedule: Q04DX003 (ip), vehicle: saline): 161 (2×), 166 [8 of 9 alive], 178, 198, 203, 206, 228 % of control | T/C (dose: 1.5 mg/kg/injection, schedule: Q04DX003 (ip), vehicle: saline, evaluated on day 5): 192, 208, 215, 236, 238 % of control | T/C (dose: 1.5 mg/kg/injection, schedule: Q04DX003 (ip), vehicle: saline, evaluated on day 9): 144 and 178 % of control | T/C (dose: 1.5 mg/kg/injection, schedule: Q04DX003 (ip), vehicle: saline, evaluated on day 20): 192 % of control | T/C (dose: 1.5 mg/kg/injection, schedule: Q04DX003 (ip), vehicle: saline, evaluated on day 23): 199 % of control | T/C (dose: 1.5 mg/kg/injection, schedule: Q04DX003 (ip), vehicle: saline, evaluated on day 29): 237 % of control | T/C (dose: 1.5 mg/kg/injection, schedule: Q04DX003 (ip), vehicle: saline, evaluated on day 30, list 1 of 2): 87, 113, 124, 127, 132, 153, 160, 169, 175, 181, 183, 189, 196, 198, 204, 205, 207, 208, 212, 215, 216, 219, 221, 224, 226, 228 (2×), 231, 235 (2×), 240, 268 % of control | T/C (dose: 1.5 mg/kg/injection, schedule: Q04DX003 (ip), vehicle: saline, evaluated on day 30, list 2 of 2): 107, 118, 126, 127, 141, 155, 169, 171, 178, 183, 187, 192, 197, 200, 204, 205, 207, 211, 213, 216, 218, 221 (2×), 224, 227, 228, 230, 235 (2×), 236 [9 of 10 alive], 265, 282 % of control | T/C (dose: 1.5 mg/kg/injection, schedule: Q04DX003 (ip), vehicle: saline, evaluated on day 40): 206 % of control | T/C (dose: 1.5 mg/kg/injection, schedule: Q04DX003 (ip), vehicle: saline, evaluated on day 45): 201, 204, 207, 211, 212 (2×), 216 (2×), 218, 219, 221, 222, 226 (2×), 231 [9 of 10 alive], 234, 240, 258 % of control (2×) | T/C (dose: 1.5 mg/kg/injection, schedule: Q04DX003 (ip), vehicle: saline, evaluated on day 56): 212 % of control | T/C (dose: 1.5 mg/kg/injection, schedule: Q04DX003 (ip), vehicle: saline, evaluated on day 60): 124, 178, 215, 216, 218, 222, 223, 233, 235 (2×), 236, 237, 239, 241 (2×), 241 [9 of 10 alive], 242, 245, 257, 261, 297, 380 % of control | survivor count (dose: 1.6 mg/kg/injection, schedule: Q01DX009 (ip), vehicle: saline): 2 of 6 and 3 of 6 | survivor count (dose: 1.6 mg/kg/injection, schedule: Q04DX003 (ip), vehicle: water): 6 of 6 | T/C (dose: 2.0 mg/kg/injection, schedule: Q01DX001 (ip), vehicle: saline, evaluated on day 5): 130, 135, 150, 169, 172, 173, 174 (2×), 178 % of control | T/C (dose: 2.0 mg/kg/injection, schedule: Q01DX001 (ip), vehicle: saline, evaluated on day 30): 140, 150, 170 [4 of 5 alive], 175 % of control | T/C (dose: 2.0 mg/kg/injection, schedule: Q01DX001 (ip), vehicle: saline, evaluated on day 45): 167 % of control | survivor count (dose: 2.0 mg/kg/injection, schedule: Q01DX001 (ip), vehicle: saline): 1 of 6, 2 of 6, 3 of 6, 4 of 6 (2×), 6 of 6 | T/C (dose: 2.0 mg/kg/injection, schedule: Q01DX001 (ip), vehicle: water, evaluated on day 3): 86 % of control | T/C (dose: 2.0 mg/kg/injection, schedule: Q01DX001 (ip), vehicle: water, evaluated on day 5): 154, 163, 167, 168 [4 of 7 alive], 170 [8 of 9 alive], 177, 178 % of control | T/C (dose: 2.0 mg/kg/injection, schedule: Q01DX001 (ip), vehicle: water, evaluated on day 6): 145, 148, 158 % of control | T/C (dose: 2.0 mg/kg/injection, schedule: Q01DX001 (ip), vehicle: water, evaluated on day 10): 97 % of control | T/C (dose: 2.0 mg/kg/injection, schedule: Q01DX001 (ip), vehicle: water, evaluated on day 20): 155 % of control [5 of 6 alive] | T/C (dose: 2.0 mg/kg/injection, schedule: Q01DX001 (ip), vehicle: water, evaluated on day 30): 107 [5 of 6 alive], 133, 148 [4 of 6 alive], 150, 152, 153, 153 [2 of 3 alive], 153 [4 of 6 alive], 157, 157 [5 of 6 alive], 160, 161 [4 of 6 alive], 161 [5 of 6 alive], 162, 163 (2×), 164, 164 [5 of 6 alive], 167 [5 of 6 alive], 168, 169, 171 (2×), 174, 174 [4 of 6 alive], 176, 177 [5 of 6 alive], 183, 183 [2 of 3 alive], 184 [4 of 6 alive], 197 % of control | T/C (dose: 2.0 mg/kg/injection, schedule: Q01DX001 (ip), vehicle: water, evaluated on day 35): 145 % of control | survivor count (dose: 2.0 mg/kg/injection, schedule: Q01DX001 (ip), vehicle: water): 1 of 3, 3 of 6, 4 of 6 | survivor count (dose: 2.0 mg/kg/injection, schedule: Q01DX009 (ip), vehicle: water): 3 of 6 | T/C (dose: 2.0 mg/kg/injection, schedule: Q04DX003 (ip), vehicle: saline, evaluated on day 5): 98, 125, 175, 176, 194, 200, 216, 216 [8 of 9 alive], 238 % of control | T/C (dose: 2.0 mg/kg/injection, schedule: Q04DX003 (ip), vehicle: saline, evaluated on day 9): 127 [4 of 6 alive], 171, 190, 193, 209 % of control | T/C (dose: 2.0 mg/kg/injection, schedule: Q04DX003 (ip), vehicle: saline, evaluated on day 20): 192 % of control | T/C (dose: 2.0 mg/kg/injection, schedule: Q04DX003 (ip), vehicle: saline, evaluated on day 23): 203 % of control | T/C (dose: 2.0 mg/kg/injection, schedule: Q04DX003 (ip), vehicle: saline, evaluated on day 29): 278 % of control | T/C (dose: 2.0 mg/kg/injection, schedule: Q04DX003 (ip), vehicle: saline, evaluated on day 30, list 1 of 2): 87, 94, 98, 108 (2×), 112, 115, 117, 122, 153, 191, 195 [5 of 6 alive], 198, 202, 205, 211, 212, 216, 219, 222, 226, 231 (2×), 235, 236, 238, 239, 242, 244, 250, 251, 285 % of control | T/C (dose: 2.0 mg/kg/injection, schedule: Q04DX003 (ip), vehicle: saline, evaluated on day 30, list 2 of 2): 89, 96, 103, 108, 109, 113, 117, 120, 127, 169, 192, 198, 200, 203, 209 [5 of 6 alive], 212, 214, 218, 222, 225, 227, 231, 234, 235, 237, 238, 240, 243, 248, 250, 257, 288 % of control | T/C (dose: 2.0 mg/kg/injection, schedule: Q04DX003 (ip), vehicle: saline, evaluated on day 35): 119 % of control | T/C (dose: 2.0 mg/kg/injection, schedule: Q04DX003 (ip), vehicle: saline, evaluated on day 40): 240 % of control | T/C (dose: 2.0 mg/kg/injection, schedule: Q04DX003 (ip), vehicle: saline, evaluated on day 45): 95, 99 [5 of 6 alive], 119, 122, 142, 145 [7 of 8 alive], 183, 213, 216, 220, 225 (3×), 227, 237, 239, 241 [9 of 10 alive], 247, 248, 255, 257, 260 (2×), 262 % of control | T/C (dose: 2.0 mg/kg/injection, schedule: Q04DX003 (ip), vehicle: saline, evaluated on day 56): 216 % of control | T/C (dose: 2.0 mg/kg/injection, schedule: Q04DX003 (ip), vehicle: saline, evaluated on day 60): 110 [9 of 10 alive], 116 [9 of 10 alive], 119, 130 [9 of 10 alive], 166, 175, 214, 234, 235, 235 [9 of 10 alive], 236, 239, 242, 245, 248, 252, 274, 530 % of control | survivor count (dose: 2.0 mg/kg/injection, schedule: Q04DX003 (ip), vehicle: saline): 6 of 10, 5 of 6, 6 of 6 (2×)
